Here are results for two molecules from patent US20150197546A1.

The target of the assay is trypsin (Pierce Biotechnology Inc.). As to the kind of experiment: ELISA, trypsin coated on plate, purified peptide detected with anti-S-tag HRP. On the technique in general: In an ELISA, binding on a coated surface is turned into a signal by an enzyme label.

No constants are given. Whether binding was seen depends on the method and setting.

B1: α-chymotrypsin-binding peptide No. 6 (designed binder, not shown: large carriers)
chain: DPQFGLFSKYRTPNCRRWLLPWCTYKYKPVCGSDMSTYANECTLCMKIREGGHNIKIIRNGPC
Take B1: the binding result is given as “no binding”.

B2: α-chymotrypsin-binding peptide No. 2 (designed binder, not shown: large carriers)
chain: DPQFGLFSKYRTPNCMRHRRHFCTMVYKPVCGSDMSTYANECTLCMKIREGGHNIKIIRNGPC
Turning to B2, the binding entry was “no binding”.
